Read-outs that look alike come from different tables or passages of the source. For at least one entry, the source does not settle the construct or the ends of the probe. For some assays here: Negatives hold for the conditions tested. For some assays here: Where cells or extracts were used, other partners may take part. For some assays here: At least one verdict was read from the data and is not stated in words by the source. For some assays here: The comparison behind a weaker result is the experiment's own reference, which may not be listed here. For some assays here: Tags and fusion partners may be left off the protein sequences shown.
Experiments:
[1] = biological target: PTBP1 (endogenous, long and short isoforms, HeLa) (Homo sapiens (HeLa)) (UniProt P26599); test: competition with a labelled probe; conditions: protein in an extract
[2] = biological target: PTBP1 (TnT, isoform not stated for this lane) (UniProt P26599); test: UV cross-linking; conditions: monomer, ~80 kDa; protein translated in vitro
5xH-PTBP1 [3] = biological target: 5xH-PTBP1 (UniProt P26599); test: UV cross-linking; conditions: 80 and 160 kDa species
GST-hnRNP A1 = test: EMSA
PTBP2 (TnT) = biological target: T1, PTBP2 (TnT) (UniProt Q9UKA9); test: EMSA; conditions: protein translated in vitro
T1 sequence (looked up, limits assumed): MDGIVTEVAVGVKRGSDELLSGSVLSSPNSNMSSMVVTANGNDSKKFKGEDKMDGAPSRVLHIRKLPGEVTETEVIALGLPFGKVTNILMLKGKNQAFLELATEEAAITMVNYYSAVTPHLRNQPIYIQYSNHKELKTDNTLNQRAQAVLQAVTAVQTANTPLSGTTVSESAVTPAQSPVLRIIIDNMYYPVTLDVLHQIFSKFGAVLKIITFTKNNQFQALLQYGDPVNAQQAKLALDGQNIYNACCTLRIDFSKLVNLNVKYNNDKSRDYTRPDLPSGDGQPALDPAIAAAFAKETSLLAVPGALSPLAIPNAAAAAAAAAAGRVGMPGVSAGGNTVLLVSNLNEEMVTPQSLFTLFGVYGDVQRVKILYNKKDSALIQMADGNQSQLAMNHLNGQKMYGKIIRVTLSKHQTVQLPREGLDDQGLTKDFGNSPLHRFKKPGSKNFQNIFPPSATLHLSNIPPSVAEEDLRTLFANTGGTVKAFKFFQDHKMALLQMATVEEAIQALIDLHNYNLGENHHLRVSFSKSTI

Chains of the proteins cited; added tags and fusions are not shown. Lines headed by an entry give the natural chain unless they say otherwise; changes in a name come on top.
UniProt P26599: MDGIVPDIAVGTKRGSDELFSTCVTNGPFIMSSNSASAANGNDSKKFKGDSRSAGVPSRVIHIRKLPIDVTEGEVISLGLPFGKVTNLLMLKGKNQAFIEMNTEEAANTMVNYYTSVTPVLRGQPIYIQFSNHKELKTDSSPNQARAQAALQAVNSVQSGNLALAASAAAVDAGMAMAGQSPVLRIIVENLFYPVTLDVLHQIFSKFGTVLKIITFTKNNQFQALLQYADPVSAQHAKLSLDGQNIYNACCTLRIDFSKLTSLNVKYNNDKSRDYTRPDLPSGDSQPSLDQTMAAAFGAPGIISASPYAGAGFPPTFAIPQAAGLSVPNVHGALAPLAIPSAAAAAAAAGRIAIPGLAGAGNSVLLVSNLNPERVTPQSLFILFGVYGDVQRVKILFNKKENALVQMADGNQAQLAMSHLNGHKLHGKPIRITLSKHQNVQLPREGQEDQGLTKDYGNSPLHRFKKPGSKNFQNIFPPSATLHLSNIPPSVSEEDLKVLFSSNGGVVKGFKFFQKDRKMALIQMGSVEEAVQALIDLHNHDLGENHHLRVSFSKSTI
UniProt Q8TEQ6: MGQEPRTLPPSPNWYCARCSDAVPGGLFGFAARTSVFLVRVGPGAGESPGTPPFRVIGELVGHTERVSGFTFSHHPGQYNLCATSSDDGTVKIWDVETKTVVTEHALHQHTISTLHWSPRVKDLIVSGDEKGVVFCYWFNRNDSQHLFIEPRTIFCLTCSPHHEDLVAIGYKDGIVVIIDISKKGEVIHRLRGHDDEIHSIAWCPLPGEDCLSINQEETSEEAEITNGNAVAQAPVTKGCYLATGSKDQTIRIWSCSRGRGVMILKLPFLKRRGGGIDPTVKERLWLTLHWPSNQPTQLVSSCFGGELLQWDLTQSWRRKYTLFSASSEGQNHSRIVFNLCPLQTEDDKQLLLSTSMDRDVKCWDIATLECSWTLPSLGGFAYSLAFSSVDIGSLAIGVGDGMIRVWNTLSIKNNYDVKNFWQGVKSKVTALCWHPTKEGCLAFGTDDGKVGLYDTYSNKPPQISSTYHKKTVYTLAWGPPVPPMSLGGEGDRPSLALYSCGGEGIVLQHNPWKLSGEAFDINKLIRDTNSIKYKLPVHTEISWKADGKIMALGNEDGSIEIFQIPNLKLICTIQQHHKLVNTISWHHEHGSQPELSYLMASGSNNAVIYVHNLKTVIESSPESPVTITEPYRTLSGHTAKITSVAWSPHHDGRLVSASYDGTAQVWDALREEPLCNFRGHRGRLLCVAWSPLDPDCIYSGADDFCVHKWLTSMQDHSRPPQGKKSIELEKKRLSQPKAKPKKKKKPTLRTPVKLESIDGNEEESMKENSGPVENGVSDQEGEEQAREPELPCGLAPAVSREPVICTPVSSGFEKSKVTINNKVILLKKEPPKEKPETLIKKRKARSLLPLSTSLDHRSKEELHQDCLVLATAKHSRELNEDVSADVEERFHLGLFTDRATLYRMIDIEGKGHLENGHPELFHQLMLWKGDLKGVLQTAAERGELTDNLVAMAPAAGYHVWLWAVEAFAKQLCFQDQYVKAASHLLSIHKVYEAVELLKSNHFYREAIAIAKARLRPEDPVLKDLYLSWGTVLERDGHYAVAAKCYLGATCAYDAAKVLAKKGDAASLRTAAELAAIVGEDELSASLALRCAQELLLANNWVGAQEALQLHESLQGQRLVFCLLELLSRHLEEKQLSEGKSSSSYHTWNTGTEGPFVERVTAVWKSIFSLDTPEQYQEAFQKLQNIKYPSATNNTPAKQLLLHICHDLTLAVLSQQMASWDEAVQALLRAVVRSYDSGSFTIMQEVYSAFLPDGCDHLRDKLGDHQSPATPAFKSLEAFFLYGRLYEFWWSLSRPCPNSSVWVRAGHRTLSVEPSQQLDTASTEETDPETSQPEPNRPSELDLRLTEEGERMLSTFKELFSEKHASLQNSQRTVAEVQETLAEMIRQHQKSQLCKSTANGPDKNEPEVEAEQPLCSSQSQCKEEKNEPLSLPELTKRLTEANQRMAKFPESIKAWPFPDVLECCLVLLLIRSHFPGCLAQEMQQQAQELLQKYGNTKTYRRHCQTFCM
UniProt O00425, whole entry: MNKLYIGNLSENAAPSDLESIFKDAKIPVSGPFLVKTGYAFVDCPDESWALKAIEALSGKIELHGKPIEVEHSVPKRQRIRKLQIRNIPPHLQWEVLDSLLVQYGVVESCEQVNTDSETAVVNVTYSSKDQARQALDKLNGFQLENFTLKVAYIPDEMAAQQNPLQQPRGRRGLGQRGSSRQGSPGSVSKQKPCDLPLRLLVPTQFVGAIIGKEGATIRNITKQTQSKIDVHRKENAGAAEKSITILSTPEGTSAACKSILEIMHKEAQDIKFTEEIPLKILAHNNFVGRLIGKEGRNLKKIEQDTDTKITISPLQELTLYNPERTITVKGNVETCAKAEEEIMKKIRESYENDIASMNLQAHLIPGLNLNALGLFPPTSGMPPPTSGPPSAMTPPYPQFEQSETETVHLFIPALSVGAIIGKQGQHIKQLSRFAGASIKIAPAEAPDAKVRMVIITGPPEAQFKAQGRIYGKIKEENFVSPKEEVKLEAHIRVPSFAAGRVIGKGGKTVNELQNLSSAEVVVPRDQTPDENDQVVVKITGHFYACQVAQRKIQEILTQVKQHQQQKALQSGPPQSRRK

GST-PTBP2 = biological target: T2, GST-PTBP2 (UniProt Q9UKA9); test: EMSA; conditions: dimer
T2 sequence (looked up, limits assumed): T1 sequence (looked up, limits assumed)

[4] = biological target: Gemin5 (endogenous, HeLa) (Homo sapiens (HeLa)) (UniProt Q8TEQ6); test: EMSA; conditions: protein in an extract
[5] = system: PTBP1 short isoform (TnT); test: EMSA; conditions: protein translated in vitro
[6] = biological target: GST-PTBP1 Y247Q delta N-terminus (UniProt P26599); test: EMSA
hnRNP A1 (TnT) = test: EMSA; conditions: protein translated in vitro
GST-PTBP1 = GST-PTBP1 (UniProt P26599); test: EMSA; conditions: dimer
[7] = biological target: PTBP1 (endogenous, long and short isoforms, HeLa) (Homo sapiens (HeLa)) (UniProt P26599); test: EMSA; conditions: HeLa cytoplasmic extract; protein in an extract
5xH-PTBP1 [8] = biological target: 5xH-PTBP1 (UniProt P26599); test: EMSA; conditions: monomer and dimer
PTBP1 long isoform (TnT) = PTBP1 long isoform (TnT) (UniProt P26599); test: EMSA; conditions: protein translated in vitro
[9] = biological target: IGF2BP3 (endogenous, HeLa) (Homo sapiens (HeLa)) (UniProt O00425); test: pull-down; conditions: protein in an extract
[10] = biological target: Gemin5 (endogenous, SH-SY5Y) (Homo sapiens (SH-SY5Y)) (UniProt Q8TEQ6); test: pull-down; conditions: SH-SY5Y lysate; protein in an extract
[11] = system: GST-PTBP1 + hnRNP A1 (endogenous, HeLa); test: pull-down; conditions: ternary complex on GSH beads, HeLa nuclear extract
[12] = biological target: Gemin5 (endogenous, HeLa) (Homo sapiens (HeLa)) (UniProt Q8TEQ6); test: pull-down; conditions: HeLa cytoplasmic extract; protein in an extract
[13] = biological target: PTBP1 (endogenous, SH-SY5Y) (Homo sapiens (SH-SY5Y)) (UniProt P26599); test: pull-down; conditions: SH-SY5Y lysate; protein in an extract
[14] = system: GST-PTBP2 + hnRNP A1 (endogenous, HeLa); test: pull-down; conditions: ternary complex on GSH beads, HeLa nuclear extract
[15] = biological target: PTBP1 (endogenous, long and short isoforms, HeLa) (Homo sapiens (HeLa)) (UniProt P26599); test: pull-down; conditions: protein in an extract
[16] = system: hnRNP A1 (endogenous, HeLa) (Homo sapiens (HeLa)); test: pull-down; conditions: protein in an extract
[17] = system: hnRNP A1 (endogenous, HeLa) (Homo sapiens (HeLa)); test: EMSA; conditions: lost with AG and CU oligonucleotides together; protein in an extract
[18] = biological target: IGF2BP3 (endogenous, HeLa) (Homo sapiens (HeLa)) (UniProt O00425); test: competition with a labelled probe; conditions: U7/WT binding virtually unaffected; protein in an extract
[19] = system: hnRNP A1 (endogenous, HeLa) (Homo sapiens (HeLa)); test: competition with a labelled probe; conditions: protein in an extract
[20] = HeLa cytoplasmic extract, 7.5 ug RNA

## CAGUGUUACAGCUCUUUUAG [5' U7 (20-mer)]
[1]; partially inhibits U7/WT complex
  binding result: binds more weakly

## CAGUGUUACAGCUCUUUUAGAAUUUGUCUAGUAGGCUUUCUGGCUUUUUACCGGAAAGCCCCUCUUAUG [U7/WT]
[2]
  binding result: binds
5xH-PTBP1 [3]
  binding result: binds
GST-hnRNP A1
  binding result: binds
PTBP2 (TnT)
  binding result: binds
GST-PTBP2
  binding result: binds
[4]; with excess CU oligonucleotide sequestering PTBP1
  binding result: binds
[5]
  binding result: binds
[6]; dimer
  binding result: binds
hnRNP A1 (TnT)
  binding result: binds
GST-PTBP1
  binding result: binds
[7]
  binding result: binds
5xH-PTBP1 [8]
  binding result: binds
PTBP1 long isoform (TnT)
  binding result: binds
[9]; HeLa cytoplasmic extract
  binding result: binds
[10]
  binding result: no binding
[11]
  binding result: binds
[12]
  binding result: no binding
[13]
  binding result: binds
[14]
  binding result: binds
[15]; HeLa cytoplasmic extract
  binding result: binds
[15]; HeLa nuclear extract
  binding result: binds
[16]; HeLa cytoplasmic extract
  binding result: binds

## CAGUGUUACAGCUCUUUUAGAAUUUUUGGAGUAGGCUUUCUGGCUUUUUACCGGAAAGCCCCUCUUAUG [U7/SPL]
[4]; supershifted by anti-Gemin5, HeLa cytoplasmic extract
  binding result: binds
[7]
  binding result: binds more weakly
[1]; 500-fold excess U7/SPL does not eliminate U7/WT complex
  binding result: binds more weakly
[9]; 7.5 ug RNA
  binding result: binds more weakly
[9]; limiting RNA (750 ng)
  binding result: no binding
[12]
  binding result: binds
[15]; [20]
  binding result: binds more weakly
[15]; HeLa cytoplasmic extract, limiting RNA (750 ng)
  binding result: no binding
[15]; HeLa nuclear extract, difference by silver stain only
  binding result: binds more weakly
[16]; same or higher than U7/WT
  binding result: binds

## CAGUGUUACAGCUCUUUUGAAAUUUGUCUGAUAGGCUUUCUGGCUUUUUACCGGAAAGCCCCUCUUAUG [U7/2xGA]
[16]; HeLa cytoplasmic extract
  binding result: binds more weakly

## CAGUGUUACAGGAGAUUUAGAAUUUGUCUAGUAGGCUUUCUGGCUUUUUACCGGAAAGCCCCUCUUAUG [U7/PU]
[4]; HeLa cytoplasmic extract
  binding result: no binding
[7]
  binding result: no binding
[9]; 7.5 ug RNA
  binding result: binds more weakly
[12]
  binding result: no binding
[15]; [20]
  binding result: binds more weakly
[16]; higher than U7/WT
  binding result: binds

## CAGUGUUACAGGAGAUUUAGAAUUUUUGGAGUAGGCUUUCUGGCUUUUUACCGGAAAGCCCCUCUUAUG [U7/2xMut]
GST-hnRNP A1
  binding result: binds
[4]; HeLa cytoplasmic extract
  binding result: binds
[6]
  binding result: no binding
[17]
  binding result: binds
[9]; virtually eliminated
  binding result: no binding
[10]
  binding result: binds
[16]; same or higher than U7/WT
  binding result: binds

## CUCUCUCUCUUUCUUU [CU oligonucleotide]
[18]
  binding result: no binding
[1]; inhibits U7/WT complex
  binding result: binds
[19]; U7/WT binding virtually unaffected
  binding result: no binding

## UAUGAUAGGGACUUAGGGUG [AG (UAG) oligonucleotide]
[1]; no effect on PTBP1 binding to U7/WT
  binding result: no binding
[19]; prevents binding to U7/WT
  binding result: binds

## UGAAAAUUUUUAUUCUCUUUGAAAUUUGUCUUGGUGGGACCCUUUGUCUAGGCAUUGAGUGUUCCCGUU [Dm U7]
[9]; HeLa cytoplasmic extract
  binding result: no binding
[12]
  binding result: binds
[15]; HeLa cytoplasmic extract, exceeds U7/WT
  binding result: binds
[16]; HeLa cytoplasmic extract
  binding result: no binding

— doi:10.1101/2023.08.19.553944
